Source: PubChem BioAssay AID686938 (Drosophila RNAi Screening Center, 2013)

Assay: 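Looking for CRAC channel components and the factors controlling them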 (primary screen)
System: Drosophila S2R+ cells
Knock-down reagent: long dsRNA against Drosophila genes, about 0.25 µg dsRNA per well, roughly 10,000 cells
Timing: 5 days of knock-down before the calcium assay
Challenge: thapsigargin (SERCA pump blocker) to empty calcium stores; entry signal taken 4 min after adding it
Read-out: 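Duplicate raw fluo-4 intensities per well from a plate reader, at rest and four minutes after thapsigargin emptied calcium stores; entry-to-rest ratio filled for only some wells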
Direction: calcium entry signal: higher = stronger calcium signal after store depletion; entry to resting ratio: higher = more calcium entry relative to resting level; resting calcium signal: higher = higher resting calcium signal
Rule for the call: 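Hit if the duplicate-averaged plate z-score for entry over resting signal is under −3; wells with weak total dye signal (Fmax z < −2) or more than 5 off-targets removed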
Calls: active = strongly reduced calcium entry; inactive = no strong reduction
The deposit covers about 23,000 reagents; this is an unselected part of those that have a named target and a result. In the full data, 75 (0.33%) are marked active. 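Raw plate signals without normalisation; calls rest on plate z-scores that were not deposited; ratio present for only 364 wells.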 The record does not give: the dose of the treatment.

target gene	amplicon	calcium entry signal, replicate 1 (fluorescence units)	calcium entry signal, replicate 2 (fluorescence units)	entry to resting ratio	resting calcium signal, replicate 1 (fluorescence units)	resting calcium signal, replicate 2 (fluorescence units)	outcome
CG8507	DRSC16435	3.64e7	3.65e7		1.88e7	1.88e7	inactive
CG12325	DRSC06130	2.99e7	2.77e7		1.61e7	1.53e7	inactive
CG9674	DRSC11088	2.17e7	3.41e7		1.22e7	2.38e7	inactive
CG9674	DRSC11089	3.29e7	5.80e7		1.82e7	2.34e7	inactive
crn (crooked neck)	DRSC18184	2.15e7	1.77e7	1.3	1.63e7	1.42e7	inactive
crn (crooked neck)	DRSC18185	2.46e7	2.78e7	1.5	1.59e7	1.81e7	inactive
crn (crooked neck)	DRSC18755	1.87e7	2.31e7		1.39e7	1.44e7	inactive
5-HT1B (5-hydroxytryptamine (serotonin) receptor 1B)	DRSC05031	4.63e7	3.58e7		2.02e7	1.81e7	inactive
5-HT1B (5-hydroxytryptamine (serotonin) receptor 1B)	DRSC05769	3.14e7	4.01e7		1.82e7	2.21e7	inactive
feo (fascetto)	DRSC19398	3.39e7	2.14e7		2.01e7	1.33e7	inactive
Cyp4c3 (Cytochrome P450 4c3)	DRSC16631	4.19e7	3.81e7		1.82e7	1.80e7	inactive
Fer2 (48 related 2)	DRSC15925	4.65e7	8.17e7		2.11e7	8.25e7	inactive
ERp60 (Endoplasmic reticulum p60)	DRSC07309	3.12e7	3.81e7		1.41e7	1.40e7	inactive
Toll-9	DRSC11776	2.58e7	4.81e7		1.33e7	1.86e7	inactive
CG2983	DRSC00558	3.29e7	3.88e7		1.55e7	1.69e7	inactive
l(1)G0196 (lethal (1) G0196)	DRSC20591	3.18e7	3.98e7		1.54e7	1.70e7	inactive
l(1)G0196 (lethal (1) G0196)	DRSC20629	5.24e7	4.82e7		2.24e7	1.92e7	inactive
Vps50 (Vacuolar protein sorting 50)	DRSC06910	3.36e7	2.49e7		1.54e7	1.29e7	inactive
fat-spondin	DRSC07617	4.25e7	3.82e7		1.98e7	1.84e7	inactive
Rcd1 (Reduction in Cnn dots 1)	DRSC07116	3.79e7	3.41e7		2.11e7	1.89e7	inactive
CG33299	DRSC01085	1.67e7	3.77e7		1.38e7	1.59e7	inactive
ftz (fushi tarazu)	DRSC12626	4.21e7	3.63e7		1.63e7	1.68e7	inactive
CG14282	DRSC14763	3.75e7	3.85e7		3.83e7	1.66e7	inactive
CG42697	DRSC05740	3.20e7	3.42e7		1.48e7	1.71e7	inactive
nkd (naked cuticle)	DRSC11376	2.74e7	4.49e7		1.27e7	1.77e7	inactive
Mapmodulin	DRSC06956	3.31e7	2.78e7		1.48e7	1.42e7	inactive
CG34286	DRSC13372	3.96e7	3.17e7		1.96e7	1.51e7	inactive
CG34286	DRSC21790	4.40e7	4.03e7		2.47e7	1.85e7	inactive
Pfrx (6-phosphofructo-2-kinase)	DRSC18856	4.04e7	4.08e7		1.90e7	1.90e7	inactive
Pfrx (6-phosphofructo-2-kinase)	DRSC19315	2.94e7	4.87e7		1.56e7	2.40e7	inactive
larp (La related protein)	DRSC14728	3.52e7	5.40e7		1.83e7	2.37e7	inactive
larp (La related protein)	DRSC16984	3.51e7	5.42e7		1.81e7	2.43e7	inactive
larp (La related protein)	DRSC21856	2.39e7	4.37e7		1.22e7	2.01e7	inactive
CG3527	DRSC18307	2.63e7	3.10e7		1.52e7	1.71e7	inactive
CG11828	DRSC14394	3.62e7	5.83e7		1.94e7	2.57e7	inactive
CG11828	DRSC22580	3.13e7	3.36e7		1.70e7	1.57e7	inactive
CNBP (CCHC-type zinc finger nucleic acid binding protein)	DRSC04116	3.97e7	3.67e7		2.19e7	1.93e7	inactive
CNBP (CCHC-type zinc finger nucleic acid binding protein)	DRSC04419	4.27e7	2.43e7		2.16e7	1.26e7	inactive
CNBP (CCHC-type zinc finger nucleic acid binding protein)	DRSC21317	2.39e7	2.79e7		1.43e7	1.41e7	inactive
CG8908	DRSC07297	5.45e7	4.35e7		2.49e7	2.26e7	inactive

Looked up above:
Toll-9 [DRSC11776], outcome = inactive
5-HT1B (5-hydroxytryptamine (serotonin) receptor 1B) [DRSC05769], outcome: inactive
For “calcium entry signal, replicate 1 (fluorescence units)”, CG11828 [DRSC22580] shows 3.13e7
